Experimental data taken from article PMC10444199.
Results are given in words; binding and its absence hold for the method and conditions named. For some of these results: In cells and extracts the contact can be indirect. Some entries that bind do so weakly or less than the wild type.

The chains behind the UniProt entries cited, without tags or fusion partners. Residues count along the entry.
UniProt P25445, residues 26-335: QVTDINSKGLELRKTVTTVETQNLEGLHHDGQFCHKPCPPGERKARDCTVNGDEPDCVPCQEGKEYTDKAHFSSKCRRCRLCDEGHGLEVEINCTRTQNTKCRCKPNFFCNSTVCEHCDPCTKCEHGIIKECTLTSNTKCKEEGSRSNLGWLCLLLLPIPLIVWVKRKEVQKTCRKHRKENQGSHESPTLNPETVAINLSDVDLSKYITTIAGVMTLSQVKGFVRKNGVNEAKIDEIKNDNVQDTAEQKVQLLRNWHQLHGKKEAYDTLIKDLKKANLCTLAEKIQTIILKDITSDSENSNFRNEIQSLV
UniProt P97523, residues 25-1382: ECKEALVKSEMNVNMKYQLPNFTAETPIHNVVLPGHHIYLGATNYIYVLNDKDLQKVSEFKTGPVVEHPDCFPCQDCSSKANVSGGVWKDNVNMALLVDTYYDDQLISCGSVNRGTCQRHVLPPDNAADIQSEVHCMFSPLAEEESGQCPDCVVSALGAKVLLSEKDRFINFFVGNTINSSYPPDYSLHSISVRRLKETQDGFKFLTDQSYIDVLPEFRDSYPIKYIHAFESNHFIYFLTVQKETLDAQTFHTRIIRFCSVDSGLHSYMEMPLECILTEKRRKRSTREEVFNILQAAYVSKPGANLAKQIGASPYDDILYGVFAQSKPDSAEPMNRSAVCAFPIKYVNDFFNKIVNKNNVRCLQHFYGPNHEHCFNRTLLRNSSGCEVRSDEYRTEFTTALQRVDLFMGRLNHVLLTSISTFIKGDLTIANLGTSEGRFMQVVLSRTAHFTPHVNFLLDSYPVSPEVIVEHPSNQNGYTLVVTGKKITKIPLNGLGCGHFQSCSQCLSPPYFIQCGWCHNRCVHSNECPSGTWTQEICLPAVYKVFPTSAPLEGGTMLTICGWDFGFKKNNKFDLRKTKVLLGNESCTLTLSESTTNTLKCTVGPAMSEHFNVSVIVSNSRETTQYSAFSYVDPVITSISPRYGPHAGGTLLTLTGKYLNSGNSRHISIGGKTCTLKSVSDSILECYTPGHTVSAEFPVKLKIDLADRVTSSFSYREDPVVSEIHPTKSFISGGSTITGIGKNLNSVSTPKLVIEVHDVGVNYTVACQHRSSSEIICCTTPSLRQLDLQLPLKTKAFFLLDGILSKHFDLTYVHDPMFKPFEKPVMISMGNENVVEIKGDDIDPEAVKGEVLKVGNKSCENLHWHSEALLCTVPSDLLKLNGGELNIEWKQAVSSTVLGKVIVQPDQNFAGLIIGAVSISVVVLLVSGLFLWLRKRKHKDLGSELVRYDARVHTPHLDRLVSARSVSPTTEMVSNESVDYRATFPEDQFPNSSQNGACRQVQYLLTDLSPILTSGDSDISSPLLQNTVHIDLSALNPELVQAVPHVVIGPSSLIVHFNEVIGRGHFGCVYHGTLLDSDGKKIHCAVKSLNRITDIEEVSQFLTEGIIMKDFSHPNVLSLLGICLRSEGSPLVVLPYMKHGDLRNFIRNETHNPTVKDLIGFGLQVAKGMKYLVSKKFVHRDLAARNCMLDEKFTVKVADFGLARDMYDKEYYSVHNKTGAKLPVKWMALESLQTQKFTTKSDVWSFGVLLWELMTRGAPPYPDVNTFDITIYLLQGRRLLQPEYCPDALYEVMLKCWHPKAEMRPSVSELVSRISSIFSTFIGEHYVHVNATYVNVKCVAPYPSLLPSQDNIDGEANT
UniProt P08581, residues 25-1390: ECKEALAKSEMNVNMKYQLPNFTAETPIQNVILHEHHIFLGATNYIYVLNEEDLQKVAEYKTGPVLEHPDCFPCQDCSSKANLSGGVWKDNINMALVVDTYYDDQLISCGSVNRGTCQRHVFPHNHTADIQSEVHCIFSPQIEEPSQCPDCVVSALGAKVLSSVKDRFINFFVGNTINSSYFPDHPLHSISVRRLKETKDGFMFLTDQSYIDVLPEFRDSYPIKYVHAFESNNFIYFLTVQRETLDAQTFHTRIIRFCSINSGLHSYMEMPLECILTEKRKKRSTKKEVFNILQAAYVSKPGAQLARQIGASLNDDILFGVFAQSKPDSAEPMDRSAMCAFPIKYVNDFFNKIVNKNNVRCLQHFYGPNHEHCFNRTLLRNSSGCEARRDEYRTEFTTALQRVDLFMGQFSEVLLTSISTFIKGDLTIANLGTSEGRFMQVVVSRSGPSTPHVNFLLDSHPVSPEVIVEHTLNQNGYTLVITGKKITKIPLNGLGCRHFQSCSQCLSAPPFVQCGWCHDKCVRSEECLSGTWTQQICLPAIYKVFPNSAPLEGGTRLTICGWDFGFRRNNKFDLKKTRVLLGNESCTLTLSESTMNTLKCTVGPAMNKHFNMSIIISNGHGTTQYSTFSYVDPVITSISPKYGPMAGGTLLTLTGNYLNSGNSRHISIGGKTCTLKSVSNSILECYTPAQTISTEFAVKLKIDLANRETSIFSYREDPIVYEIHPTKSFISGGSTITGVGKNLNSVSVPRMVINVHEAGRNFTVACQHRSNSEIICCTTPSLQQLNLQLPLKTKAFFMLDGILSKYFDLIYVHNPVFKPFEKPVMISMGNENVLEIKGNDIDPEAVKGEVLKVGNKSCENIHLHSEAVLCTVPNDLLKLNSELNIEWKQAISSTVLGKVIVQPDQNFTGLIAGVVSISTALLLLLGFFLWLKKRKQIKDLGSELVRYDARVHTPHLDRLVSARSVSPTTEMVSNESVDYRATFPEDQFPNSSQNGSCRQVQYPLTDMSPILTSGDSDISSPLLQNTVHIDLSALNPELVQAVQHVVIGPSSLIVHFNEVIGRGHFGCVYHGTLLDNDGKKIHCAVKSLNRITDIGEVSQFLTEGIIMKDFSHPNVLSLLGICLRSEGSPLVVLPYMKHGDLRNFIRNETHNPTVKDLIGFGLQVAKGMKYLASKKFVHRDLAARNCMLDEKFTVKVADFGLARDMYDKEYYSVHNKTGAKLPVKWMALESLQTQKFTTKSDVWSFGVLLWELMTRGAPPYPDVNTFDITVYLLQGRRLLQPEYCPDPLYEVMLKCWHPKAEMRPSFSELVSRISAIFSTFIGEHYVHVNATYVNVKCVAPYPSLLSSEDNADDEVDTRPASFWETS

T1: Fas (death receptor FAS), rat (rat (endogenous in Lewis rat splenic CD8+ T cells)) (UniProt Q63199)
T1 sequence: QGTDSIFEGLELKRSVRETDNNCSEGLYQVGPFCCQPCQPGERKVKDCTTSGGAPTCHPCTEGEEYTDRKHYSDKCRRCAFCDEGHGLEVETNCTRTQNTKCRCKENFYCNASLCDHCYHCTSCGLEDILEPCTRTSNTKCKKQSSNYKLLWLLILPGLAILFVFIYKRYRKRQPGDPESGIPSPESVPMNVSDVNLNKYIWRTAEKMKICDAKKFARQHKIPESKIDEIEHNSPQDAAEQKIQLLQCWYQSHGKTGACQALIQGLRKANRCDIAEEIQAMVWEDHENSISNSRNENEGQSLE


Experiments:
[1] = target: T1, Fas (death receptor FAS), rat (rat (endogenous in Lewis rat splenic CD8+ T cells)); test: co-IP; lysates of 1 x 10^6 MACS-purified Lewis rat naive splenic CD8+ T cells; IP with an antibody against Fas or cMet on protein A/G magnetic beads, IB with anti-cMet (145 kDa) or anti-Fas (35 kDa); isotype IgG controls
[2] = target: FAS, human (human (endogenous in peripheral blood CD8+ T cells)) (UniProt P25445); test: co-IP; human healthy peripheral blood MACS-purified CD8+ T cells; cMet-FAS interaction, two individuals (n1-n2)
[3] = target: T1, Fas (death receptor FAS), rat (rat (endogenous in Lewis rat splenic CD8+ T cells)); test: SPR; localized surface plasmon resonance (LSPR); 50 ug/mL Fas antibody immobilised on a COOH sensor chip; total protein (50 ug/mL) of cell lysates of MACS-purified splenic aCD8+ T cells injected at 20 ul/min, Fas captured; antibodies against cMet, FADD and caspase-8 added for 5 min, dissociation 7 min; IgG1 as negative control; cells untreated (allo-OLT), treated with h-rHGF within 72 h, or with anti-cMet-Ab

Molecule	binding [3]	also measured
cMet (HGF-only receptor), rat (from UniProt P97523 25-1382)		binding [1]: binds
cMet, human (from UniProt P08581 25-1390) (receptor)		binding [2]: binds
caspase-8, rat (enzyme, UniProt Q9JHX4 1-482) MDFHSCLYDIAERLGNEELAALKFLCLDHIPQKKQESINDVLVLFQRLQEEGMLEEDNLSFLKELLFHISRRDLLSRVLKSSPEEMVRELQVLGKAQVSAYRVMLFKLSEDMDKEDLKSFKFLLITEIPKCKLQDNSSLLDIFVEMEKRTILAENNLVTLKSICFRVNRSLLGRIDDYERSSTERRMSTEGGEELPVSVLDEVTIKMQDMWDSPGEQESESLNSDNVYQMKSKPRGYCLIFNNNNFSKAREDIPKLSNMRDRKGTNYDEEALSKTFKELHFEIVSFSDCTASQIHEVLVSYQSKDHKGKDCFICCILSHGDKGIVYGTDGKEASIYELTSYFTGSKCPSLAGKPKIFFIQACQGNNFQKAVPVPDETGLEQEHVLEEDSSSYKNYIPDEADFLLGMATVKNCVSYRDPTRGTWYIQSLCQSLRERCPRGEDILSILTGVNYDVSNKDNPRNMGKQMPQPIFTLRKKLFFPPN	binds	
Fas-associated protein with death domain (FADD), rat (protein, UniProt Q8R2E7 1-208) MDPFLVLLHSLSSSLSGNDLTDLKFLCRERVSKRKLERVQSGLDLFSVLLEQNDLERGHTGLLRELLASLGRHDLLQRLDDFEAGATTAATPGEADLRVAFDIVCDNVGRDWKRLARELKVSEAKIDGIEERYPRSLSDRVRETLRVWKNVEKENASVAGLVKALRACRLNLVADLVEEALMAQGSVSKSDDTSSALRDSTVSFSETP	binds	
